Experimental findings from PMC5109244 are described below.

In test [1] the target is T1, short mouse DNGR-1 ECD (extracellular domain of the short isoform of mouse DNGR-1) (mouse), Q8BRU4.
T1 chain: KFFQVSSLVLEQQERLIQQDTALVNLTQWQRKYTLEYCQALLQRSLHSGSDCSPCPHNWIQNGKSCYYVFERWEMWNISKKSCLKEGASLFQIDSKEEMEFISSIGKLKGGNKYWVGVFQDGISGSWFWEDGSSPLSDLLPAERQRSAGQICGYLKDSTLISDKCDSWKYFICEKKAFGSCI
Briefly: reducing SDS-PAGE and Western blot; supernatants with FLAG-tagged ECD proteins diluted into 10 mM MES pH 6.1; 100 mM DTT in Laemmli buffer; anti-FLAG detection; reduction-resistant (type-2) dimers. Particulars: remark: other sources report otherwise.

In test [2] the target is short mouse DNGR-1 ECD (extracellular domain of the short isoform of mouse DNGR-1) (mouse) (UniProt Q8BRU4). Briefly: condition: only with DTT or β-ME (reducing SDS-PAGE, neutral conditions); reducing SDS-PAGE and Western blot; supernatants with FLAG-tagged ECD proteins, neat or diluted into PBS (neutral conditions); reduced with DTT (100 mM) or β-ME in Laemmli buffer; anti-FLAG detection.

No constants are given. Whether binding was seen depends on the method and setting. Some results given as binding are weak or reduced against the parent protein; the word gives no strength.

B1: short mouse DNGR-1 ECD (extracellular domain of the short isoform of mouse DNGR-1), Q8BRU4 57-238 (domain or fragment)
chain: T1 chain
modifications: here or on the partner: glycosylated (mobility augmented by PNGase F); glycosylated (mobility augmented by PNGase F)
B1: in test [1], the binding entry is “binds”.

B2: short mouse DNGR-1 ECD (extracellular domain of the short isoform of mouse DNGR-1) (domain or fragment, UniProt Q8BRU4 57-238)
chain: T1 chain
modifications: glycosylated (mobility augmented by PNGase F)
Turning to B2, the binding entry in test [2] is “no binding”.
